# Data published in publication PMC7819943, “Rice protein-binding microarrays: a tool to detect cis-acting elements near promoter regions in rice”.
# The chains behind the UniProt entries cited, without tags or fusion partners.
# UniProt Q0JBA9, entry or part of it: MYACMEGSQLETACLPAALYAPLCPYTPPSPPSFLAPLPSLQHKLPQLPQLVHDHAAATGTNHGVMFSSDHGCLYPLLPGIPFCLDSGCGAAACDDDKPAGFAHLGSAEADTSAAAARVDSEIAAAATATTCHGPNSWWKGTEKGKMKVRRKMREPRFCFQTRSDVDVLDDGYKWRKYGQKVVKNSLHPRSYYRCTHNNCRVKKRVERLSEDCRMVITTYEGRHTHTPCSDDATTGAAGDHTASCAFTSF
# The other results are listed elsewhere or left out.
# Target: OsWRKY34 (Oryza sativa, UniProt Q0JBA9 1-250)
# Assay: protein-binding microarray (RPBM); PBS, 2% BSA, 51.3 ng/ul salmon testes DNA, 50 uM zinc acetate, 200 nM TF, 25 C, 1 h; high values mean tight binding
# Details: protein: recombinant; tags: N-terminal polyhistidine and DsRed monomer fusion (pET32a); label: CyDye5-dUTP incorporated in the synthesized complementary strand; 3' TTTTT single-stranded linker to array surface; dsDNA, one strand shown
# Method in brief: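 Ni–NTA purification followed expression in E. coli BL21-CodonPlus of transcription factors fused N-terminally to a polyhistidine tag and DsRed. At 200 nM in PBS with 2% BSA, salmon testes DNA and 50 µM zinc acetate, the protein was incubated for 1 h at 25 °C with a custom Agilent array that had been primer-extended with Cy5-dUTP and blocked with 2% BSA. After washing, the array was read on an Axon 4000B scanner. The binding signal is per-feature fluorescence intensity in arbitrary units.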
row,Sequence,binding signal
1,TCGGTTTGTTTTTTTCCGGTTTATCTTCTTTCGGTTTTTTCGGAGTCACCTAGTGCAG,18500 fluorescence intensity (a.u.)
2,GTGTTCGGATGCCATTTTTCTCATCTCATCTCTCTCGTTTCGGAGTCACCTAGTGCAG,9400 fluorescence intensity (a.u.)
3,TAATGTCATCTTCCCGTAGATTCTCACTCTTCAAGTCTCACGGAGTCACCTAGTGCAG,10000 fluorescence intensity (a.u.)
4,AGACGTGTGATTATATGCTTTTGTATTTGTTTTTTTTATCCGGAGTCACCTAGTGCAG,12600 fluorescence intensity (a.u.)
5,AATGGTGCAATACAATTTCAAGCGTATCACTGTTGTTCCTCGGAGTCACCTAGTGCAG,9720 fluorescence intensity (a.u.)
6,TGGTCCTTAGCCTAGCTCATTGGTTGATCCTCCAATACCGCGGAGTCACCTAGTGCAG,8340 fluorescence intensity (a.u.)
7,CTGCACCACCGCTTTTTAGGCCCTCCTCCGTGTTGTCCGACGGAGTCACCTAGTGCAG,8820 fluorescence intensity (a.u.)
8,CCCATGTTGTTCCGCGGACTTCTCGCTTGGGCTGTCGGGTCGGAGTCACCTAGTGCAG,8310 fluorescence intensity (a.u.)
9,ATGTAATTCTGACTATTTTGTTTTTTAACCCAAGCGAATTCGGAGTCACCTAGTGCAG,8580 fluorescence intensity (a.u.)
10,CATGCCTTACGGTTTTTCTTTTTTTTTTTCCCGGAATTGCCGGAGTCACCTAGTGCAG,9060 fluorescence intensity (a.u.)
11,CGAGACTAGGTAGCAAATATCATTTTCCGTTTAATTTCACCGGAGTCACCTAGTGCAG,10800 fluorescence intensity (a.u.)
12,TATTTTTGGGTTGGGTTTGGGTTGGGTTGGGTCGAGTTGGCGGAGTCACCTAGTGCAG,26100 fluorescence intensity (a.u.)
13,ACGTATATTATCATTATGTTTTTTTCACCCGTTGCAAACACGGAGTCACCTAGTGCAG,11100 fluorescence intensity (a.u.)
14,TGGGTTTCTCAGCTTCTGGCTTCTAGTTCATTTTCTGGATCGGAGTCACCTAGTGCAG,10600 fluorescence intensity (a.u.)
15,GGGTGGCAGTGGCGCCGAGGACGCACGCCACGTGTTTGACCGGAGTCACCTAGTGCAG,8510 fluorescence intensity (a.u.)
16,CCAATTGTTTTCCTCTCTGTGTGTTTTGCTCATGTTTTGTCGGAGTCACCTAGTGCAG,16000 fluorescence intensity (a.u.)
17,GCACCGTAGCAACTACTCCAGCAACTGTGTTTTCAATTCTCGGAGTCACCTAGTGCAG,11300 fluorescence intensity (a.u.)
18,TTTTTTTGTGCAGTTTTTTCTCCTTTTTGATTTTGATTTTCGGAGTCACCTAGTGCAG,9480 fluorescence intensity (a.u.)
19,TCACCCCGCCGCCGCCATCCAGGCGCCGACGACCTCCCATCGGAGTCACCTAGTGCAG,8840 fluorescence intensity (a.u.)
20,GCAGATGCAGTCACATGTTCTTTTCTCTCTCATCACCATGCGGAGTCACCTAGTGCAG,8780 fluorescence intensity (a.u.)
21,TGTGGGATGGATTTGTGGTGATTGAGAGGGTTTGAAAGGGCGGAGTCACCTAGTGCAG,9590 fluorescence intensity (a.u.)
22,ACATGTCAGCTCTCTCTCACTCACTCTTCTTATCTCAATCCGGAGTCACCTAGTGCAG,13100 fluorescence intensity (a.u.)
23,CTGGTTTTTCGCGCGCACGCTTTTCAAACTGCTAAACGGTCGGAGTCACCTAGTGCAG,8930 fluorescence intensity (a.u.)

# Quoted from the listing:
# In binding signal, ACGTATATTATCATTATGTTTTTTTCACCCGTTGCAAACACGGAGTCACCTAGTGCAG reads 11100 fluorescence intensity (a.u.)
# In binding signal, CTGCACCACCGCTTTTTAGGCCCTCCTCCGTGTTGTCCGACGGAGTCACCTAGTGCAG reads 8820 fluorescence intensity (a.u.)
